Assay results reported in publication PMC8883701.
Residue numbers refer to the chain shown, from its start. No constants are given. Whether binding was seen depends on the method and setting. Binding seen in cells or lysates may run through a third protein. Some binding calls cover weakened binding; strength is not graded here. For some of these results: Sequences can lack the tags named with a protein. Values belong to the molecule of their own block, whether it stands above or below them.

Protein sequences, listed by entry. Tags and fused reporters are not part of them. Lines headed by an entry give the natural chain unless they say otherwise; changes in a name come on top. Residues count along the entry.
UniProt P09874: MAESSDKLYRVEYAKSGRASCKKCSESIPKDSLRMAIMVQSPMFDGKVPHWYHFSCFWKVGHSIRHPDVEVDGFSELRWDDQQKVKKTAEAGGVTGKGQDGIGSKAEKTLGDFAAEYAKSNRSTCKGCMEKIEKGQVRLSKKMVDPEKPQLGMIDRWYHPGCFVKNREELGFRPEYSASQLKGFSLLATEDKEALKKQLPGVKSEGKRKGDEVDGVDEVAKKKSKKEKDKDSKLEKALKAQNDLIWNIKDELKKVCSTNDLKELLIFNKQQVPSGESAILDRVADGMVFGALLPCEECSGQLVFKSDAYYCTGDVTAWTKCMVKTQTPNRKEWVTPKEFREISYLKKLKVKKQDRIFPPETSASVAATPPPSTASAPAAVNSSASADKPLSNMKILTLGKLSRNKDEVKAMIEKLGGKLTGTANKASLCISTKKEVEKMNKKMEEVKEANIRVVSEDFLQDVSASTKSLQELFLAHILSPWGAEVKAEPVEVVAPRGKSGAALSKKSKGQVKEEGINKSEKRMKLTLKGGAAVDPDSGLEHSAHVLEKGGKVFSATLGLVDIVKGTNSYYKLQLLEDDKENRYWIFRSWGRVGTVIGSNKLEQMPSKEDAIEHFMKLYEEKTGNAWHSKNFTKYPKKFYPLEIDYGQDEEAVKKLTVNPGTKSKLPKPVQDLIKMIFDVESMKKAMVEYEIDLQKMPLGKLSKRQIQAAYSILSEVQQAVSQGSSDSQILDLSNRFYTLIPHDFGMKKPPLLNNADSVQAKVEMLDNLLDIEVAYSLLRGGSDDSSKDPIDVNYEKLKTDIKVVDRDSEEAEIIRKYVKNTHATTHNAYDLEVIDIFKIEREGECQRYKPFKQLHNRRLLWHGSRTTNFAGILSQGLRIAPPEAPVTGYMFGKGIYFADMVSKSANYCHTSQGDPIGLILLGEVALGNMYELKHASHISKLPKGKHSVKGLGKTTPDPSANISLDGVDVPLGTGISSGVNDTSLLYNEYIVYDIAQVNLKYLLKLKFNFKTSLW
UniProt P02545, residues 1-646: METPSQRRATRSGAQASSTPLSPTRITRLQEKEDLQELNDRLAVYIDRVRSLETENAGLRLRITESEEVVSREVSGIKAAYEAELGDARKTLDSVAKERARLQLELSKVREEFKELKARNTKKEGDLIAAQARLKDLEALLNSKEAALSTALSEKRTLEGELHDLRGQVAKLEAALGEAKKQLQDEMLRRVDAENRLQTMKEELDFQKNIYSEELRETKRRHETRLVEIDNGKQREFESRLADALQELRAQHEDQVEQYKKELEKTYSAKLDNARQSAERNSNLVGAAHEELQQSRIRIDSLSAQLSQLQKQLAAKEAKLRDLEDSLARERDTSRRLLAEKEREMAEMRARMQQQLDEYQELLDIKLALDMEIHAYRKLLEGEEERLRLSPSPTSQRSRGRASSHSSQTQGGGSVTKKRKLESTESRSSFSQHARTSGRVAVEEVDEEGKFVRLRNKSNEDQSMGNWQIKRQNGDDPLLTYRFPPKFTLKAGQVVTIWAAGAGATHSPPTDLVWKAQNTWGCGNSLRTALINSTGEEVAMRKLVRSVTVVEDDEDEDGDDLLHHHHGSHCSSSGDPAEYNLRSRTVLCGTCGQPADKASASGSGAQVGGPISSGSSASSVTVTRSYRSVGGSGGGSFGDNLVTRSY

Experiments:
FLAG-tagged LAP2α/2RQ = molecular target: T1, FLAG-tagged LAP2α/2RQ (UniProt P42166); assay: co-IP; FLAG-tagged LAP2α variants transfected into HeLa cells
T1 sequence: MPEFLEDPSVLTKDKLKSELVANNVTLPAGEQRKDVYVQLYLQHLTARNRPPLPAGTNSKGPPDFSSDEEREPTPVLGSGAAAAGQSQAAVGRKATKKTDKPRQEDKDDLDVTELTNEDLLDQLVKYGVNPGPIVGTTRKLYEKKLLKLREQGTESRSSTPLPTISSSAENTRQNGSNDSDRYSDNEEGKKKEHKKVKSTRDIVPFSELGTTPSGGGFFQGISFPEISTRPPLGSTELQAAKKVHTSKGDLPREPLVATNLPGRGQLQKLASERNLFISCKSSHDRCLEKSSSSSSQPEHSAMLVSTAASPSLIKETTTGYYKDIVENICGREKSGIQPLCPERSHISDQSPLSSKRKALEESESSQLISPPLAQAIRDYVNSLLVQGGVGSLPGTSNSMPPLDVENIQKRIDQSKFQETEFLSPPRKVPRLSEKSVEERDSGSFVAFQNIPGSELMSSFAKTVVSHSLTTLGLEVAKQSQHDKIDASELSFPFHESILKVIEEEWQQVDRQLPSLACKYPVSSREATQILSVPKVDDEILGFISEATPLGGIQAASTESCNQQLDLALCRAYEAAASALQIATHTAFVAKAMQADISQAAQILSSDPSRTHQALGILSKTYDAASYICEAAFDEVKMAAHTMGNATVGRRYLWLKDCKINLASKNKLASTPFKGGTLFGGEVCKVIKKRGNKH

FLAG-tagged LAP2α/2RA = molecular target: T2, FLAG-tagged LAP2α/2RA (UniProt P42166); assay: as above
T2 sequence: T1 sequence with Q86A, Q88A

FLAG-tagged LAP2α/2RE = molecular target: T3, FLAG-tagged LAP2α/2RE (UniProt P42166); assay: as above
T3 sequence: T1 sequence with Q86E, Q88E

[1] = molecular target: T4, FLAG-GFP-tagged LAP2α C (C-terminus, 415-695) (UniProt P42166); assay: co-IP; whole-cell lysates of HeLa cells expressing FLAG-GFP-tagged LAP2α truncation or deletion mutants
T4 sequence: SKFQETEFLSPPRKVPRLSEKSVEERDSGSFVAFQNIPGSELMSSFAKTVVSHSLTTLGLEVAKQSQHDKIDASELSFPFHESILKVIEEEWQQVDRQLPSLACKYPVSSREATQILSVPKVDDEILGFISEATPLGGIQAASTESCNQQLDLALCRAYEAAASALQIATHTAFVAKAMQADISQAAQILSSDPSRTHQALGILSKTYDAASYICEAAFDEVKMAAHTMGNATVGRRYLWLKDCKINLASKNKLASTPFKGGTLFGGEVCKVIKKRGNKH

[2] = molecular target: wild type PARP1 (PARP1/wt) (UniProt P09874); assay: co-IP; PARP1/wt and PARP1/E988K, Figure S3N; cells and constructs not shown
[3] = molecular target: PARylation activity-deficient PARP1 (PARP1/E988K) (UniProt P09874); assay: as above

binding (FLAG-tagged LAP2α/2RQ): binds
binding (FLAG-tagged LAP2α/2RA): binds
binding (FLAG-tagged LAP2α/2RE): binds
binding [1]: binds
Molecule: Lamin A/C (from UniProt P02545 1-646)

binding [2]: binds
binding [3]: binds
Molecule: Lamin-associated polypeptide 2 alpha (LAP2α) (from UniProt P42166 1-694)

binding (FLAG-tagged LAP2α/2RQ): binds
binding (FLAG-tagged LAP2α/2RA): binds
binding (FLAG-tagged LAP2α/2RE): binds
binding [1]: binds
B1: retinoblastoma protein (pRb) (protein, UniProt P06400 1-928)
chain: MPPKTPRKTAATAAAAAAEPPAPPPPPPPEEDPEQDSGPEDLPLVRLEFEETEEPDFTALCQKLKIPDHVRERAWLTWEKVSSVDGVLGGYIQKKKELWGICIFIAAVDLDEMSFTFTELQKNIEISVHKFFNLLKEIDTSTKVDNAMSRLLKKYDVLFALFSKLERTCELIYLTQPSSSISTEINSALVLKVSWITFLLAKGEVLQMEDDLVISFQLMLCVLDYFIKLSPPMLLKEPYKTAVIPINGSPRTPRRGQNRSARIAKQLENDTRIIEVLCKEHECNIDEVKNVYFKNFIPFMNSLGLVTSNGLPEVENLSKRYEEIYLKNKDLDARLFLDHDKTLQTDSIDSFETQRTPRKSNLDEEVNVIPPHTPVRTVMNTIQQLMMILNSASDQPSENLISYFNNCTVNPKESILKRVKDIGYIFKEKFAKAVGQGCVEIGSQRYKLGVRLYYRVMESMLKSEEERLSIQNFSKLLNDNIFHMSLLACALEVVMATYSRSTSQNLDSGTDLSFPWILNVLNLKAFDFYKVIESFIKAEGNLTREMIKHLERCEHRIMESLAWLSDSPLFDLIKQSKDREGPTDHLESACPLNLPLQNNHTAADMYLSPVRSPKKKGSTTRVNSTANAETQATSAFQTQKPLKSTSLSLFYKKVYRLAYLRLNTLCERLLSEHPELEHIIWTLFQHTLQNEYELMRDRHLDQIMMCSMYGICKVKNIDLKFKIIVTAYKDLPHAVQETFKRVLIKEEEYDSIIVFYNSVFMQRLKTNILQYASTRPPTLSPIPHIPRSPYKFPSSPLRIPGGNIYISPLKSPYKISEGLPTPTKMTPRSRILVSIGESFGTSEKFQKINQMVCNSDRVLKRSAEGSNPPKPLKKLRFDIEGSDEADGSKHLPGESKFQQKLAEMTSTRTRMQKQKMNDSMDTSNKEEK
